Experimental data taken from PubChem BioAssay AID488837 (National Center for Advancing Translational Sciences (NCATS), 2010).
Hit rate of the full screen: of about 330,000 compounds, about 20 (0.006%) were called active. This list was built around the results that the source calls inconclusive (neither active nor inactive); the mix of calls is not that of the screen. Calls follow the shape of the dose curve; as a rule, active = well fitted inhibition curve with a large enough effect; inconclusive = small, poorly fitted or top-dose-only effect, or effect the other way; inactive = flat fitted curve, though single readings scatter. A potency beside an inconclusive call is a rough fit, not a confirmed value.

By UniProt entry, the sequences of proteins in these tests, tags left out. Where a name states a change or a piece, a line headed by the entry shows the natural chain unless it says otherwise.
UniProt O00167: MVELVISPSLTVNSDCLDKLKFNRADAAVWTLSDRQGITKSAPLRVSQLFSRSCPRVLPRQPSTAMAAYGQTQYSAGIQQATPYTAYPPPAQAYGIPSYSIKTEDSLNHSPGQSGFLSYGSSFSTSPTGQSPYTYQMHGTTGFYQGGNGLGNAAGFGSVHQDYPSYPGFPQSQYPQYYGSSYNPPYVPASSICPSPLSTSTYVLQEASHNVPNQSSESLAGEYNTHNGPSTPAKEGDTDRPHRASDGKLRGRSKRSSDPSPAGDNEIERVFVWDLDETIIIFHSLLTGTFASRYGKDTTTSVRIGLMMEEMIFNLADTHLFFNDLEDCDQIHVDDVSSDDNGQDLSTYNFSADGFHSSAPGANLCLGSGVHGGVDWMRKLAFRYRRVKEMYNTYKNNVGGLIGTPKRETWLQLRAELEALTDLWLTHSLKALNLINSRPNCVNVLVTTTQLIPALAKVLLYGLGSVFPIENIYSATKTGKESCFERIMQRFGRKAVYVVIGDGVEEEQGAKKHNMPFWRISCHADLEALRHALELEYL

The molecules below were run against Protein phosphatase EYA2 (Homo sapiens) (UniProt O00167) (assay: qHTS Assay for Inhibitors of the Phosphatase Activity of Eya2). Conditions: recombinant Eya2, OMFP fluorescence dephosphorylation (OMFP is methylfluorescein phosphate); activity, negative = inhibition: at 76.9 µM (top of the series) unless noted.
Outline: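 Eya2 protein (added as 0.2 uM solution) was preincubated with compound for 10 min at ambient temperature in 50 mM HEPES pH 7.5, 50 mM NaCl, 5 uM MgCl2, 0.05% BSA, 1 mM DTT. OMFP (added at 50 uM) then reacted 10 min; fluorescence read at 485/525 nm.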
% is scaled to controls: 0 for no effect and ±100 for the full control effect; potency is read from the fitted curve at half-maximal effect.

| SMILES | Potency | activity, negative = inhibition |
| --- | --- | --- |
| COc1cc2[nH]c(=O)n(CCCC(=O)NC3CCCCC3)c(=O)c2cc1OC | inactive |  |
| NC1=NC(=O)/C(=C\c2ccco2)S1 | inactive |  |
| N#Cc1ccccc1NC(=O)CSC1=Nc2ccccc2C2CC=NN12 (stereo not given) | inconclusive: 20 µM [inhibitor, partial curve, poor fit] |  |
| CC(=O)Nc1ccc(N2C(=O)c3cccc4c(O)ccc(c34)C2=O)cc1 | inconclusive: 31.6 µM [activator, partial curve] |  |
| COC(=O)c1ccc(/C=N/N2CCN(Cc3ccc(Cl)cc3)CC2)cc1 | inconclusive: 100 µM [inhibitor, single point] |  |
| Nc1nc(CSc2nc3ccccc3s2)nc(Nc2ccccc2)n1 | inactive |  |
| Cc1noc(C)c1COC(=O)c1ccc(-c2nc3ccccc3s2)s1 | inactive |  |
| Cc1ncc(CSc2nccc(=O)[nH]2)c(CO)c1O | inconclusive: 28.2 µM [inhibitor, partial curve, poor fit] |  |
| CC(C)CN(C(=O)CCCc1nc2ccccc2c(=O)[nH]1)c1c(N)n(Cc2ccccc2)c(=O)[nH]c1=O | inconclusive: 28.2 µM [inhibitor, partial curve] |  |
| Cc1cc(C)c(/C=C2\C(=O)Nc3ccccc32)[nH]1 | inconclusive: 79.4 µM [activator, partial curve] |  |
| CC1(C)Cc2noc(N)c2C(C)(C)N1O | inactive |  |
| COc1ccccc1/C=N/NC(=O)c1ccc2c(c1)OCO2 | inconclusive: 17.8 µM [inhibitor, single point] |  |
| COc1ccccc1-c1nnc(SCC(=O)NC2CC2)n1C | inconclusive: 28.2 µM [inhibitor, partial curve] |  |
| O=S(=O)(c1cccc(-c2cn3ccccc3n2)c1)N1CCCC1 | inconclusive: 100 µM [inhibitor, single point] |  |
| FC(F)(F)c1cc(CCN2CCNC[C@H]2Cc2cccc3ccccc23)cc(C(F)(F)F)c1 | inactive |  |
| O=C(O)c1ccc(N=Nc2c(O)ccc3ncccc23)cc1 | inconclusive: 100 µM [inhibitor, single point] |  |
| O=C1/C(=C/c2ccc(C(=O)O)cc2)CCC/C1=C\c1ccc(C(=O)O)cc1 | inactive |  |
| COc1ccccc1-c1nnn(C/C(N)=N/O)n1 | inactive |  |
| COc1ccc(N2C(=NC(=O)CCC3CCCC3)SC3CS(=O)(=O)CC32)cc1 (stereo not given) | inconclusive: 100 µM [inhibitor, single point] |  |
| O=c1cc(-c2ccc(O)c(O)c2)oc2cc(O[C@@H]3O[C@H](CO)[C@@H](O)[C@H](O)[C@H]3O)cc(O)c12 | inactive |  |
| CCc1nn2c(=O)c(S(=O)(=O)Nc3cccc(F)c3)c(C)nc2s1 | inconclusive: 25.1 µM [inhibitor, single point] |  |
| O=C(O)c1ccc(S(=O)(=O)c2ccc3c(c2)C(=O)N(NC(=O)c2cccnc2)C3=O)cc1 | inconclusive: 79.4 µM [inhibitor, single point] |  |
| FC(F)(F)c1cnc(/C=C/Nc2ccccc2Cl)c(Cl)c1 | inconclusive: 22.4 µM [inhibitor, single point] |  |
| COCCn1nnnc1C(c1ccc(OC)cc1)N1CCN(C(=O)c2ccco2)CC1 (stereo not given) | inconclusive: 89.1 µM [inhibitor, single point] |  |

Sorted by number of heavy atoms (smallest number first): part of the list above

| SMILES | Potency | activity, negative = inhibition |
| --- | --- | --- |
| CC1(C)Cc2noc(N)c2C(C)(C)N1O | inactive |  |
| O=S(=O)(c1cccc(-c2cn3ccccc3n2)c1)N1CCCC1 | inconclusive: 100 µM [inhibitor, single point] |  |
| CC(C)CN(C(=O)CCCc1nc2ccccc2c(=O)[nH]1)c1c(N)n(Cc2ccccc2)c(=O)[nH]c1=O | inconclusive: 28.2 µM [inhibitor, partial curve] |  |

Further results:

| SMILES | Potency | activity, negative = inhibition |
| --- | --- | --- |
| CCOC(=O)CC1C(=O)NCCN1c1nc2c(C)cccn2c(=O)c1/C=C1\SC(=S)N(C(C)CC)C1=O (stereo not given) | inconclusive: 25.1 µM [activator, partial curve, poor fit] |  |
| COc1cccc(C(=O)N2N=C(c3cccc(OC)c3)CC2(O)C(F)(F)F)c1 (stereo not given) | inconclusive: 100 µM [inhibitor, single point] |  |
| CN(C)S(=O)(=O)c1ccc(C(=O)/C=C/c2cccnc2)cc1 | inactive |  |
| CC(=O)/C(N=Nc1ccc(C(=O)O)cc1[N+](=O)[O-])=C(\C)O | inconclusive: 89.1 µM [inhibitor, single point] |  |
| CCN(CC(=O)NCc1ccc(F)cc1)C(=O)/C=C/c1ccco1 | inactive |  |
| Cc1ccc(NC(=O)COC(=O)c2ccc([N+](=O)[O-])s2)c(C)c1 | inactive |  |
| CCCCCOC(=O)Cn1c(=O)oc2ccccc21 | inactive |  |
| COc1ccc(CC(=O)Nc2ccc(-c3cn4ccc(C)cc4n3)cc2)cc1 | inconclusive: 70.8 µM [inhibitor, single point] |  |
| COc1ccc(NC(=O)C(CC(C)C)NC(=O)C2CCC(C)CC2)c(OC)c1 (stereo not given) | inconclusive: 28.2 µM [inhibitor, single point] |  |
| COc1cc(OC)c(OC)cc1/C=N/NC(=O)c1cc(-c2cccn2C)n[nH]1 | inconclusive: 200 µM [activator, partial curve, poor fit] |  |
| C=CCNC(=O)C1CC2Cn3c(nc4cc(C)c(C)cc43)C2N1C (stereo not given) | inconclusive: 50.1 µM [inhibitor, partial curve, poor fit] |  |
| O=C(N/N=C/c1c(O)ccc2ccccc12)c1ccc(Br)o1 | inconclusive: 63.1 µM [activator, partial curve] |  |
| Cc1ccc(-n2ncc3c2CC(C)(C)CC3NC(=O)CCCN2CCCC2=O)cc1 (stereo not given) | inconclusive: 70.8 µM [inhibitor, single point] |  |
| COCC(=O)Oc1c(S(=O)(=O)c2ccc(C)cc2)c(C)nn1C(C)(C)C | inconclusive: 100 µM [inhibitor, single point] |  |
| COc1cc(C(=O)N[C@H](C(=O)NC2CCCc3ccccc32)C(C)C)cc(OC)c1OC (stereo not given in full) | inconclusive: 22.4 µM [inhibitor, partial curve] |  |
| COc1ccc(-c2csc3nc(-c4ccccc4F)oc(=O)c23)cc1OC |  | inconclusive: -35% [inhibitor] |
| CN(c1ccccc1)S(=O)(=O)c1ccc(C(=O)Nc2nnc(C3=COCCO3)o2)cc1 | inconclusive: 50.1 µM [inhibitor, partial curve, poor fit] |  |
| CCc1c(C)nc(N2CCN(c3ccc(OC)cc3)CC2)[nH]c1=O | inconclusive: 20 µM [inhibitor, single point] |  |
| CCN(CC)C1CC(=O)N(c2cccc(Cl)c2)C1=O (stereo not given) | inconclusive: 89.1 µM [inhibitor, single point] |  |
| O=C(/C=C/c1ccco1)c1ccc(O)cc1 | inconclusive: 89.1 µM [inhibitor, single point] |  |
| COc1ccc(C(=O)Nc2ccc(NC(=O)C(C)C)nc2)cc1 | inconclusive: 22.4 µM [inhibitor, single point] |  |
| CCOC(=O)c1cc(C)sc1/N=C/C1C(=O)CCCC1=O | inactive |  |
| COc1cc(Nc2c3c(nc4ccccc24)CCC3)cc(OC)c1OC | inactive |  |
| COc1ccccc1NC(=O)CSc1nnc(COc2ccccc2C)o1 | inconclusive: 15.8 µM [inhibitor, single point] |  |

| SMILES | Potency | activity, negative = inhibition |
| --- | --- | --- |
| CN(C)N=Nc1ccc(S(=O)(=O)NC(=O)Cc2ccccc2)cc1 | inconclusive: 178 µM [inhibitor, single point] |  |
| S=C(NCc1cccnc1)Nc1ccc(Oc2ccccc2)cc1 | inconclusive: 79.4 µM [inhibitor, single point] |  |
| COc1cc2c3nnc(-c4ccc(F)cc4)c-3cn(Cc3cccc(C)c3)c2cc1OC | inconclusive: 20 µM [inhibitor, single point] |  |
| CCCCCCCn1c(NC(=O)CC)nc2ccccc21 | inconclusive: 25.1 µM [inhibitor, single point] |  |
| CC1Cc2ccccc2N1NC(=O)c1ccc(Cl)c(S(N)(=O)=O)c1 (stereo not given) | inactive |  |
| COc1ccc(CCN2C(=O)CC(NNc3ccc([N+](=O)[O-])cc3)C2=O)cc1OC (stereo not given) | inconclusive: 100 µM [inhibitor, single point] |  |
| COc1ccc(S(=O)(=O)NN(C)c2nc(C(F)(F)F)nc3ccccc23)cc1 | inconclusive: 22.4 µM [inhibitor, single point] |  |
| O=C1NC(=Nc2ccc(F)cc2)SC1Cc1ccc(F)cc1 (stereo not given) | inconclusive: 89.1 µM [inhibitor, single point] |  |
| Cc1cc(OC(=O)c2ccc(S(=O)(=O)N(C)C)cc2)c([N+](=O)[O-])c(=O)[nH]1 | inconclusive: 126 µM [inhibitor, single point] |  |
| Cc1ccc(NC(=O)CSCC(=O)NCc2ccco2)cc1 | inconclusive: 17.8 µM [inhibitor, single point] |  |
| O=C(Nc1nc(-c2ccccn2)cs1)c1ccc(Cl)s1 | inactive |  |
| CC(C)OC(=O)n1c(=S)oc2ccccc21 | inactive |  |
| O=C(N/N=C/c1c[nH]c2ccccc12)c1cccc(Cl)c1 | inconclusive: 1780 µM [inhibitor, partial curve, poor fit] |  |
| Cc1ccc(S(=O)(=O)/N=C(\N)Nc2nc(C)c3ccc(C)cc3n2)cc1 | inactive |  |
| CC(/C=C/C1(O)C(C)CC(O)CC1(C)C)OC1OC(CO)C(O)C(O)C1O (stereo not given) | inconclusive: 25.1 µM [inhibitor, single point] |  |
| Cc1c(C)c2ccc(O[C@@H]3O[C@H](CO)[C@@H](O)[C@H](O)[C@H]3O)c(C)c2oc1=O |  | inconclusive: -33.6% [inhibitor] |
| CCOC(=O)c1sc(=NC(=O)c2c(F)cccc2F)n(C)c1C | inactive |  |
| Cc1nn(CC(=O)O)c(C)c1[N+](=O)[O-] | inactive |  |
| COCCNc1c2c(nc3c(-c4ccccc4)c(C)nn13)CCC2 | inconclusive: 22.4 µM [inhibitor, single point] |  |
| COc1ccc(-n2cc(C(=O)c3ccc4ccccc4c3O)cn2)cc1 | inconclusive: 56.2 µM [inhibitor, partial curve, poor fit] |  |
| O=C(Nc1ccon1)C1CCN(S(=O)(=O)c2cccs2)CC1 | inactive |  |
| CC1(C)C(c2ccccc2)=NC(c2ccc(Br)cc2)N1O (stereo not given) | inactive |  |
